Results deposited as PubChem BioAssay AID1224830 (NIAID, 2016)
In all, the deposit lists about 18,000 reagents; below is a random part of them. About 2,900 of them (16%) count as active. 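Calls are made per well; low scores hint the gene aids the LPS response, high scores that it dampens it.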 Repeated entries: four replicate wells of each siRNA pool. No sequences are given here.

Screen: 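Genes whose knock-down alters the TNF-alpha reporter response to LPS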 (primary screen)
System: human THP-1 monocytic leukaemia cells, TNF dual-luciferase reporter clone, PMA-differentiated to macrophage-like cells
Knock-down reagent: siRNA pool against human genes, 50 nM
Duration: LPS for 4 h, given about 3 days after siRNA transfection
Challenge: bacterial LPS (TLR4 ligand), 10 ng/ml
Detection: 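Ratio of firefly to renilla light, scaled to the plate median and expressed as a robust z-score per replicate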
Reading the numbers: TNF reporter robust z-score: higher = stronger TNF reporter response to LPS
Hit rule: 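a well is active when its z-score exceeds 2.8 or falls below -1.5; control wells carry no call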

{"gene": "ZDHHC12", "TNF reporter robust z-score": 2.57, "call": "inactive"}
{"gene": "ZDHHC12", "TNF reporter robust z-score": 2.2, "call": "inactive"}
{"gene": "ZDHHC12", "TNF reporter robust z-score": 1.84, "call": "inactive"}
{"gene": "ZDHHC12", "TNF reporter robust z-score": 1.06, "call": "inactive"}
{"gene": "FGF22", "TNF reporter robust z-score": 23.4, "call": "active"}
{"gene": "FGF22", "TNF reporter robust z-score": 0.64, "call": "inactive"}
{"gene": "FGF22", "TNF reporter robust z-score": -0.1, "call": "inactive"}
{"gene": "FGF22", "TNF reporter robust z-score": 0.62, "call": "inactive"}
{"gene": "ZNF784", "TNF reporter robust z-score": -0.05, "call": "inactive"}
{"gene": "ZNF784", "TNF reporter robust z-score": -0.15, "call": "inactive"}
{"gene": "ZNF784", "TNF reporter robust z-score": 0.58, "call": "inactive"}
{"gene": "ZNF784", "TNF reporter robust z-score": -1.62, "call": "active"}
{"gene": "CLLU1", "TNF reporter robust z-score": -0.88, "call": "inactive"}
{"gene": "CLLU1", "TNF reporter robust z-score": -0.72, "call": "inactive"}
{"gene": "CLLU1", "TNF reporter robust z-score": -0.58, "call": "inactive"}
{"gene": "CLLU1", "TNF reporter robust z-score": 0.6, "call": "inactive"}
{"gene": "PIWIL3", "TNF reporter robust z-score": -0.97, "call": "inactive"}
{"gene": "PIWIL3", "TNF reporter robust z-score": 1.56, "call": "inactive"}
{"gene": "PIWIL3", "TNF reporter robust z-score": -0.28, "call": "inactive"}
{"gene": "PIWIL3", "TNF reporter robust z-score": 0.15, "call": "inactive"}
{"gene": "GTF2A2", "TNF reporter robust z-score": -0.81, "call": "inactive"}
{"gene": "GTF2A2", "TNF reporter robust z-score": 0.75, "call": "inactive"}
{"gene": "GTF2A2", "TNF reporter robust z-score": 0.5, "call": "inactive"}
{"gene": "GTF2A2", "TNF reporter robust z-score": 0.22, "call": "inactive"}
{"gene": "FSCN2", "TNF reporter robust z-score": -0.25, "call": "inactive"}
{"gene": "FSCN2", "TNF reporter robust z-score": -0.79, "call": "inactive"}
{"gene": "FSCN2", "TNF reporter robust z-score": -0.16, "call": "inactive"}
{"gene": "FSCN2", "TNF reporter robust z-score": 0.07, "call": "inactive"}
{"gene": "S100A8", "TNF reporter robust z-score": -1.65, "call": "active"}
{"gene": "S100A8", "TNF reporter robust z-score": -1.31, "call": "inactive"}
{"gene": "S100A8", "TNF reporter robust z-score": -1, "call": "inactive"}
{"gene": "S100A8", "TNF reporter robust z-score": -1.3, "call": "inactive"}
{"gene": "FRMD7", "TNF reporter robust z-score": -0.01, "call": "inactive"}
{"gene": "FRMD7", "TNF reporter robust z-score": -0.05, "call": "inactive"}
{"gene": "FRMD7", "TNF reporter robust z-score": -0.55, "call": "inactive"}
{"gene": "MMP19", "TNF reporter robust z-score": 0.75, "call": "inactive"}
{"gene": "MMP19", "TNF reporter robust z-score": 1.47, "call": "inactive"}
{"gene": "MMP19", "TNF reporter robust z-score": 1.52, "call": "inactive"}
{"gene": "MMP19", "TNF reporter robust z-score": 3.63, "call": "active"}
{"gene": "C1QTNF6", "TNF reporter robust z-score": -1.87, "call": "active"}
{"gene": "C1QTNF6", "TNF reporter robust z-score": -1.95, "call": "active"}
{"gene": "C1QTNF6", "TNF reporter robust z-score": -1.7, "call": "active"}
{"gene": "C1QTNF6", "TNF reporter robust z-score": -1.59, "call": "active"}
{"gene": "POLI", "TNF reporter robust z-score": 1.8, "call": "inactive"}
{"gene": "POLI", "TNF reporter robust z-score": 0.7, "call": "inactive"}
{"gene": "POLI", "TNF reporter robust z-score": 0.41, "call": "inactive"}
{"gene": "POLI", "TNF reporter robust z-score": 0.79, "call": "inactive"}
